Test results: PubChem BioAssay AID2685 (National Center for Advancing Translational Sciences (NCATS), 2010)
Some of the results follow. Further columns of the screen follow, without active or inactive calls. Most of these compounds were active or inconclusive in the main read-out, so they are no random draw. The note in brackets gives the kind of curve behind each potency; many fits are weak.

Assay: qHTS Assay for Lipid Storage Modulators in Drosophila S3 Cells;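 as to cell number change: cells counted by Cell Tracker Red CMTPX staining in the red channel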
Conditions: BODIPY lipid droplet fluorescence, 18-24 h; for cell number change: measured here: cell count max response, cells fed with added oleic acid
How it was run: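 Laser-scanning cytometry quantifies lipid droplet accumulation (500–530 nm total intensity; droplet/cell object ratio) in oleic acid-fed (400 uM added) Drosophila S3 cells treated with a concentration series. 20 uM Triacsin C defined 100% inhibition.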

[1] = measured here: cell number channel AC50, cells fed with added oleic acid
[2] = measured here: lipid fluorescence (Fed channel) AC50, cells fed with added oleic acid

SMILES	cell number change [%]	AC50 [1]	AC50 [2]
CCN1C(=O)/C(=C2\SC(=S)N(NC(=O)c3cccnc3)C2=O)c2ccccc21	-75.4	23.1 µM [falling, single point]	23.1 µM [falling, single point]
Cc1cc(NCc2ccccc2)nc2ccccc12	-31.8	29.1 µM [falling, single point]	32.6 µM [falling, single point]
C/C=N\NC(=O)CNC(=O)CNC(=O)c1ccccc1		3.66 µM [rising, single point]	
COc1cc([N+](=O)[O-])ccc1NC(=O)Nc1nc2c(s1)CCCC2	15.1		0.291 µM [rising, full curve]
O=S(=O)(NCCOc1cccc2cccnc12)c1ccc(F)cc1	-0.992		11.6 µM [rising, partial curve]
CN1c2ccccc2C(C)(C)C12C=Cc1cc(O)ccc1O2 (centres undefined)	-79.4	25.9 µM [falling, partial curve]	20.6 µM [falling, partial curve]
CC(=O)N(c1ccc(C(F)(F)F)cc1)S(=O)(=O)c1ccc(N2C(=O)CCC2=O)cc1	17		
Cc1cc(C(=O)COc2cc(F)ccc2[N+](=O)[O-])c(C)n1C1CC1	19.9		29.1 µM [rising, single point]
O=C(Nc1nc2cc3c(cc2s1)OCCO3)c1ccc([N+](=O)[O-])o1	-13		8.2 µM [falling, partial curve]
CC(C)CN(C(=O)CCNC(=O)c1ccc(Cl)cc1)c1c(N)n(CC(C)C)c(=O)[nH]c1=O	2.58		0.731 µM [falling, full curve, poor fit]
COc1ccc(-c2cn3c(C)c(C(=O)N4CCc5ccccc5C4)sc3n2)cc1	-40.9	6.51 µM [falling, full curve, poor fit]	
CC1=C(C(=O)N2CCOCC2)C(c2cccc3ccccc23)NC(=S)N1 (centres undefined)	25.2		0.82 µM [rising, full curve, poor fit]
CCOC(=O)C1=C(N)c2ccccc2CC1C(C)C (centres undefined)	-92.5	29.1 µM [falling, single point]	
COc1ccc(-n2nc(C(=O)NCC(=O)Nc3cccc(Cl)c3)c3ccccc3c2=O)cc1	19.7		2.91 µM [falling, full curve, poor fit]
COc1ccc(NS(=O)(=O)c2ccc(NC(=O)c3ccccn3)cc2)cc1	22.5		0.731 µM [rising, full curve]
Cc1cc(C)c(C)c(S(=O)(=O)N2CCN(C(=O)c3ccccc3OCc3c(C)noc3C)CC2)c1C	-9.46	0.0231 µM [falling, full curve, poor fit]	
CCCCCCCCC/C(=N\O)c1ccccn1	-29.4		29.1 µM [falling, single point]
Cc1ccc(CNc2nc3ccccc3s2)s1	-0.926		
CC(=O)N1CCOc2ccc(S(=O)(=O)NCc3ccc(F)cc3)cc21	5.11		0.731 µM [rising, single point]
O=C(CCCN1C(=O)S/C(=C\C=C\c2ccccc2)C1=O)Nc1ccc(C(=O)O)cc1	14.1		
O=C(O)c1ccccc1Sc1ccccc1S(=O)(=O)NC1CCCCC1	-31.2	0.103 µM [falling, full curve, poor fit]	0.82 µM [falling, full curve, poor fit]

5 neighbouring entries out of the list so far, quoted:
SMILES	cell number change [%]	AC50 [1]	AC50 [2]
CN1c2ccccc2C(C)(C)C12C=Cc1cc(O)ccc1O2 (centres undefined)	-79.4	25.9 µM [falling, partial curve]	20.6 µM [falling, partial curve]
CC(=O)N(c1ccc(C(F)(F)F)cc1)S(=O)(=O)c1ccc(N2C(=O)CCC2=O)cc1	17		
Cc1cc(C(=O)COc2cc(F)ccc2[N+](=O)[O-])c(C)n1C1CC1	19.9		29.1 µM [rising, single point]
O=C(Nc1nc2cc3c(cc2s1)OCCO3)c1ccc([N+](=O)[O-])o1	-13		8.2 µM [falling, partial curve]
CC(C)CN(C(=O)CCNC(=O)c1ccc(Cl)cc1)c1c(N)n(CC(C)C)c(=O)[nH]c1=O	2.58		0.731 µM [falling, full curve, poor fit]

Carrying on.

SMILES	cell number change [%]	AC50 [1]	AC50 [2]
CCCN1CCN(S(=O)(=O)c2ccc3c(c2)NC(=O)C(C)C(=O)N3)CC1 (centres undefined)	19		
CN(C)CCNc1oc(-c2ccccc2F)nc1C#N	-39.2	16.4 µM [falling, partial curve, poor fit]	23.1 µM [falling, partial curve, poor fit]
O=C(Cc1ccc(Cl)cc1)Nc1cccc(C(=O)Nc2ccccc2C(=O)O)c1	4.72		20.6 µM [falling, partial curve]
O=C(CCCOc1ccccc1)NCCc1nc2ccccc2[nH]1	-21.9		0.0116 µM [falling, full curve]
Cc1ccc(OCC(=O)NC2CCCC(C)C2C)c([N+](=O)[O-])n1 (centres undefined)	-8.84		0.291 µM [falling, partial curve, poor fit]
COc1ccc(CCNc2nc(C)cc(C)n2)cc1OC	30.4		
C/C(CC(=O)Nc1ccc(N(C)C)cc1)=N\NC(=O)Cc1csc(N)n1	7.08		9.2 µM [rising, partial curve]
COc1cc(/C=N/NC(=O)c2ccc(F)cc2)ccc1OC(=O)c1ccco1	-1.02		2.91 µM [falling, single point]
NC(=O)c1ccc(NC(=O)Nc2ccc3c(c2)OCO3)cc1	4.99		4.61 µM [rising, full curve, poor fit]
CCOc1ccccc1C(=O)NC(C(=O)N(C)Cc1ccc2c(c1)OCO2)C(C)C (centres undefined)	16.2		9.2 µM [rising, partial curve, poor fit]
O=C(CN(C(=O)c1csnn1)c1ccc(F)c(Cl)c1)NC1CCCCC1	-3.85		
Cc1c(NC(=O)c2ccc3c(c2)C(=O)N(CC2CCCO2)C3=O)cccc1C(=O)O (centres undefined)	-111	29.1 µM [falling, single point]	
CCOC(=O)C1=C(COC(=O)/C=C/c2ccc([N+](=O)[O-])cc2)NC(=O)NC1C (centres undefined)	36.6	29.1 µM [rising, single point]	32.6 µM [rising, single point]
O=C(/C=C/c1cccs1)Nc1sc2c(c1C(=O)O)CCCC2	22.6		
O=C(OCC(=O)N1CCCC1=O)C1CCN(S(=O)(=O)c2ccc(Cl)c(C(F)(F)F)c2)CC1	-46.4	13 µM [falling, partial curve, poor fit]	11.6 µM [falling, partial curve]
O=C(CCCOc1cccc(Br)c1)NCCOc1ccccc1	8.33		0.00517 µM [rising, full curve, poor fit]
O=C(N/N=C(\Cc1ncc[nH]1)c1ccccc1)c1cccnc1		0.58 µM [rising, single point]	25.9 µM [rising, single point]
Cc1cc(OCC(=O)N2CCC(C(=O)O)CC2)c2c(C)cc(=O)oc2c1	13		0.058 µM [rising, full curve, poor fit]
COc1ccc(C(=O)O)cc1S(=O)(=O)NCCCN1CCCC1=O	7.95		25.9 µM [falling, single point]
O=C1NC(=O)/C(=C/c2cc3c(cc2Br)OCO3)S1	-19.6		29.1 µM [falling, single point]
COc1cc(NC(=O)Cc2ccccc2)cc(OC)c1	9.03		

SMILES	cell number change [%]	AC50 [1]	AC50 [2]
CCOc1ccc2oc(C(=O)NCC(C)(C)CN(C)C)c(C)c2c1	39.8	29.1 µM [rising, single point]	
C=CCN1C(=O)c2ccc(C(=O)N(C)CC(=O)Nc3ccc(Br)cc3C)cc2C1=O	38.1	0.731 µM [rising, full curve]	2.31 µM [rising, partial curve]
CCn1c(SCC(=O)NC2CC2)nnc1-c1ccccc1OC			29.1 µM [rising, single point]
CC1CN(CCOCCSc2ccc(Cl)cc2)CC(C)O1 (centres undefined)	7.62		29.1 µM [falling, single point]
COc1cc(=O)[nH]c(SC(C)C(=O)Nc2ccc3ccccc3c2)n1 (centres undefined)	20.9		
CSc1ccc(Cl)c(C(=O)NCC(C)C)c1	6.2		
O=C(O)COc1cccc2nsnc12		1.64 µM [rising, partial curve]	
O=C(NCCCNc1ccc([N+](=O)[O-])cc1)C(F)(F)F	-29	0.259 µM [falling, full curve, poor fit]	0.326 µM [falling, full curve]
CC(Oc1ccc2c(c1)oc(=O)c1ccccc12)C(=O)NCCN1CCOCC1 (centres undefined)	-0.895		
O=C(NCc1ccccn1)Nc1ccccc1Cl	14.5		
CCc1nccn1CCC(=O)NC1CC(C)(C)Cc2c1cnn2-c1ccc(OC)cc1 (centres undefined)	52.8	29.1 µM [rising, single point]	29.1 µM [rising, single point]
N#CCC(=O)N/N=C/c1ccc(OS(=O)(=O)c2ccccc2)cc1	73	2.31 µM [rising, full curve]	2.06 µM [rising, partial curve]
C/C(CC(=O)NCCCN1CCOCC1)=N\NC(=O)COc1ccc(Cl)cc1	6.61		32.6 µM [rising, single point]
Nc1ccccc1Nc1c(F)c(F)nc(F)c1Cl	60.4	29.1 µM [rising, single point]	
Nc1c(C(=O)Nc2nccs2)sc2nc(-c3cccs3)cc(C(F)(F)F)c12	-72		11.6 µM [falling, single point]
CCOC(=O)C1=C(CC)Nc2ccccc2N/C1=N\S(=O)(=O)c1ccc2ccccc2c1	31.7		
COc1ccc(CC(=O)Nc2ccc(N3CCCC3)c(C)c2)cc1	7.66		29.1 µM [rising, single point]
CN(C)C=NC(=O)c1ccc(N2CCN(c3ncc(C(F)(F)F)cc3Cl)CC2)cc1	-23.2	0.517 µM [rising, single point]	0.184 µM [falling, full curve, poor fit]
CS(=O)(=O)N1CCN(c2ccc(Cl)cc2[N+](=O)[O-])CC1	-22.7	0.82 µM [falling, full curve]	0.82 µM [falling, partial curve, poor fit]
